{"source": "PubChem BioAssay AID2417", "about": "(National Center for Advancing Translational Sciences (NCATS), 2010)", "note": "Screen size: about 140,000 compounds; about 4,300 (3.1%) were called active. This list was built around the results that the source calls inconclusive (neither active nor inactive); the mix of calls is not that of the screen.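 Rule for the calls: active = readout at or below -70, meaning at least 70% loss of cells showing the perinucleolar compartment, a nuclear body marking cancer cells; inconclusive = readout between -30 and a set limit; inactive = the rest.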"}
{"experiment": "High Content Assay for Compounds that inhibit the Assembly of the Perinucleolar Compartment;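 note: plate controls were DMSO wells for no effect and camptothecin positive control wells for full effect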", "conditions": "PC3M PTB-GFP, PNC prevalence imaging, 16 h; at 10 µM; hits give low values", "method_in_brief": "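Read-out is percentage of cells bearing a perinucleolar compartment, from automated 20x imaging of fixed, Hoechst-stained PC3M PTB-GFP cells. Cells were seeded 4 h, then exposed 16 h to compound (23 nl of library stock) in duplicate plates.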"}
{"smiles": "COC(=O)CSc1nnc(-c2ccc(NS(=O)(=O)c3ccccc3)cc2)o1", "activity change (PNC), negative = inhibition": "inactive: -8.59%"}
{"smiles": "Oc1[nH]c2c(Cl)cc(Cl)cc2c1N=NC(=S)NCC1CCCO1", "note": "(stereo unspecified)", "activity change (PNC), negative = inhibition": "inactive: 22.7%"}
{"smiles": "OC(C#CCN1CCCC1)c1ccccc1", "note": "(stereo unspecified)", "activity change (PNC), negative = inhibition": "active: -86.5%"}
{"smiles": "CCOC(=O)C1CCN(C(=O)CSc2cc(=O)n(C)c3ccccc23)CC1", "activity change (PNC), negative = inhibition": "inactive: 0.103%"}
{"smiles": "CC1CCN(C(=O)C2CCN(S(=O)(=O)c3cccnc3)CC2)CC1", "activity change (PNC), negative = inhibition": "inactive: -23.9%"}
{"smiles": "Cc1ccc(OCc2nnc(SCc3nc4ccccc4[nH]3)n2Cc2ccco2)cc1", "activity change (PNC), negative = inhibition": "inconclusive: -30.8%"}
{"smiles": "COc1ccc(N2CCN(C(=O)CCS(=O)(=O)c3cccc4nsnc34)CC2)cc1", "activity change (PNC), negative = inhibition": "active: -84.6%"}
{"smiles": "CC(C)(C)NC(=O)c1ccc2nsnc2c1", "activity change (PNC), negative = inhibition": "active: -110%"}
{"smiles": "N#CC1=C(N)Oc2cc(N)ccc2C1C1CC=CCC1", "note": "(stereo unspecified)", "activity change (PNC), negative = inhibition": "inconclusive: -72.2%"}
{"smiles": "O=C(c1ccncc1)N(Cc1cc2ccccc2[nH]c1=O)C1CCCCC1", "activity change (PNC), negative = inhibition": "inconclusive: -49.2%"}
{"smiles": "O=C1c2ccccc2C(=O)C1c1ccc2ccccc2n1", "activity change (PNC), negative = inhibition": "inactive: 20.3%"}
{"smiles": "COc1cc(CNCc2ccncc2)cc(Br)c1OCc1ccccc1F", "activity change (PNC), negative = inhibition": "inactive: -5.22%"}
{"smiles": "COCCn1c(C)cc(C(=O)COC(=O)c2ccc(NC(=O)CC#N)cc2)c1C", "activity change (PNC), negative = inhibition": "inconclusive: -47.2%"}
{"smiles": "O=C(NC1CCCCC1)C(c1ccc2ncccc2c1)N(Cc1ccccc1)C(=O)c1ccc2c(c1)OCCO2", "note": "(stereo unspecified)", "activity change (PNC), negative = inhibition": "inconclusive: -68.9%"}
{"smiles": "Cc1cc2nsnc2c(S(=O)(=O)NCC(=O)O)c1C", "activity change (PNC), negative = inhibition": "inconclusive: -59%"}
{"smiles": "COc1ccc(-c2n[nH]c(C)c2-c2cnn(-c3ccccc3)c2)c(O)c1", "activity change (PNC), negative = inhibition": "inactive: -1.39%"}
{"smiles": "c1ccc(Cn2ncc3c2ncn2c(-c4ccncc4)nnc32)cc1", "activity change (PNC), negative = inhibition": "inactive: 1.33%"}
{"smiles": "CCCCc1sc(-c2c(C#N)c(N)nc3c2CCCCC3)cc1[N+](=O)[O-]", "activity change (PNC), negative = inhibition": "inconclusive: -71.6%"}
{"smiles": "Cc1ccc(CNC(=O)c2oc3ccc(S(=O)(=O)N4CCOCC4)cc3c2C)cc1", "activity change (PNC), negative = inhibition": "inconclusive: -39.5%"}
{"smiles": "CC(C)Cn1nc(NC(=O)C2CCCO2)c2cc3ccccc3nc21", "note": "(stereo unspecified)", "activity change (PNC), negative = inhibition": "inconclusive: -30.7%"}
{"smiles": "COC(=O)/C(=C(/F)Sc1cc(C)c(O)c(C)c1)C(F)(F)F", "activity change (PNC), negative = inhibition": "inactive: -3.76%"}
{"smiles": "COc1ccc(N=Cc2sc(O)c3ccccc23)cc1", "activity change (PNC), negative = inhibition": "inconclusive: -50.5%"}
{"smiles": "COc1ccc(OCc2nnnn2-c2ccccc2)cc1", "activity change (PNC), negative = inhibition": "active: -92.7%"}
{"smiles": "CCN(CC)CC(=O)c1ccc(-c2ccccc2)cc1", "activity change (PNC), negative = inhibition": "inconclusive: -65.2%"}
{"smiles": "O=C(COc1ccc(S(=O)(=O)NC2CCCCC2)cc1)NCCC1=CCCCC1", "activity change (PNC), negative = inhibition": "inactive: 15.2%"}
{"smiles": "Cc1cc2nnc(SCC(=O)Nc3cccc(S(=O)(=O)N4CCOCC4)c3)n2c2ccccc12", "activity change (PNC), negative = inhibition": "inconclusive: -66.8%"}
{"smiles": "CCOC(=O)c1nn(-c2cc(C(=O)OC)cc(C(=O)OC)c2)cc1O", "activity change (PNC), negative = inhibition": "inconclusive: -47.5%"}
{"smiles": "Cc1cc(C)[n+](-c2ccc(F)cc2)c2[nH]c(=O)[nH]c(=O)c12", "activity change (PNC), negative = inhibition": "inconclusive: -34.9%"}
{"smiles": "Cc1csc(SCc2ccc(C(=O)O)cc2)n1", "activity change (PNC), negative = inhibition": "active: -111%"}
{"smiles": "Cc1ccc(S(=O)(=O)CCC(=O)NCc2ccc(Cl)cc2)cc1", "activity change (PNC), negative = inhibition": "inconclusive: -30.3%"}
{"smiles": "CN(c1nc2c(c(=O)n(C)c(=O)n2C)n1CC(=O)c1ccccc1)C1CCCCC1", "activity change (PNC), negative = inhibition": "inactive: 26.1%"}
{"smiles": "O=C(Nc1cnc2sccn2c1=O)c1ccccc1Cl", "activity change (PNC), negative = inhibition": "inconclusive: -32.8%"}
{"smiles": "S=C(NCCC(c1ccccc1)c1ccccc1)Nc1ccccc1Cl", "activity change (PNC), negative = inhibition": "inactive: 40.8%"}
{"smiles": "CCC(=O)c1c[nH]c(C(=O)NCCCN2CCOCC2)c1", "activity change (PNC), negative = inhibition": "inconclusive: -30.7%"}
{"smiles": "N#CC1=C(SCC(=O)c2cc3ccccc3oc2=O)NC(=O)C(C#N)C12CCCC2", "note": "(stereo unspecified)", "activity change (PNC), negative = inhibition": "inactive: -23.3%"}
{"smiles": "Cc1ccc(C(=O)COC(=O)c2ccc(Br)o2)cc1C", "activity change (PNC), negative = inhibition": "inconclusive: -56.5%"}
{"smiles": "O=C1CSC(c2ccccn2)N1c1cccc(Cl)c1", "note": "(stereo unspecified)", "activity change (PNC), negative = inhibition": "inconclusive: -41.9%"}
{"smiles": "COc1ccc(N(CC(=O)NCC2CCCO2)S(=O)(=O)c2ccc(C)cc2)cc1OC", "note": "(stereo unspecified)", "activity change (PNC), negative = inhibition": "inconclusive: -38.5%"}
{"smiles": "Cc1ccc2cc(CCNC(=O)Cc3cccs3)c(=O)[nH]c2c1", "activity change (PNC), negative = inhibition": "inactive: 9.11%"}
{"smiles": "Cc1sc2nc(CSc3ccccc3)nc(N3CCN(C)CC3)c2c1C", "activity change (PNC), negative = inhibition": "inactive: 27.4%"}
{"smiles": "CC(C)(C)c1csc(NC(=O)Cn2c(=O)oc3ccccc32)n1", "activity change (PNC), negative = inhibition": "inconclusive: -44.6%"}
{"smiles": "CC(C)CNC(=O)c1ccccc1NC(=O)c1ccc(CSc2ccccc2)cc1", "activity change (PNC), negative = inhibition": "inactive: -17.1%"}
{"smiles": "CCOc1ccc(Cc2nnc(N)s2)cc1OCC", "activity change (PNC), negative = inhibition": "active: -86.1%"}
{"smiles": "O=C(CC1Nc2cccc3cccc(c23)NC1=O)Nc1ccccc1", "note": "(stereo unspecified)", "activity change (PNC), negative = inhibition": "inconclusive: -47.7%"}
{"smiles": "Cc1cc(C(=O)OCC(=O)N2CC(=O)Nc3ccccc32)no1", "activity change (PNC), negative = inhibition": "inconclusive: -46.6%"}
{"smiles": "COc1ccc(C2NC(=O)c3ccccc3O2)cc1OC", "note": "(stereo unspecified)", "activity change (PNC), negative = inhibition": "inconclusive: -67%"}
